Laboratory results from paper PMC4786145.
These are yes or no findings as the source states them, for the method shown. For some assays here: Binding seen in cells or lysates may run through a third protein. Some entries that bind do so weakly or less than the wild type. One block for each substance: values may come before it.

Amino acid sequences for entries named in this document (tags omitted).
UniProt Q16665: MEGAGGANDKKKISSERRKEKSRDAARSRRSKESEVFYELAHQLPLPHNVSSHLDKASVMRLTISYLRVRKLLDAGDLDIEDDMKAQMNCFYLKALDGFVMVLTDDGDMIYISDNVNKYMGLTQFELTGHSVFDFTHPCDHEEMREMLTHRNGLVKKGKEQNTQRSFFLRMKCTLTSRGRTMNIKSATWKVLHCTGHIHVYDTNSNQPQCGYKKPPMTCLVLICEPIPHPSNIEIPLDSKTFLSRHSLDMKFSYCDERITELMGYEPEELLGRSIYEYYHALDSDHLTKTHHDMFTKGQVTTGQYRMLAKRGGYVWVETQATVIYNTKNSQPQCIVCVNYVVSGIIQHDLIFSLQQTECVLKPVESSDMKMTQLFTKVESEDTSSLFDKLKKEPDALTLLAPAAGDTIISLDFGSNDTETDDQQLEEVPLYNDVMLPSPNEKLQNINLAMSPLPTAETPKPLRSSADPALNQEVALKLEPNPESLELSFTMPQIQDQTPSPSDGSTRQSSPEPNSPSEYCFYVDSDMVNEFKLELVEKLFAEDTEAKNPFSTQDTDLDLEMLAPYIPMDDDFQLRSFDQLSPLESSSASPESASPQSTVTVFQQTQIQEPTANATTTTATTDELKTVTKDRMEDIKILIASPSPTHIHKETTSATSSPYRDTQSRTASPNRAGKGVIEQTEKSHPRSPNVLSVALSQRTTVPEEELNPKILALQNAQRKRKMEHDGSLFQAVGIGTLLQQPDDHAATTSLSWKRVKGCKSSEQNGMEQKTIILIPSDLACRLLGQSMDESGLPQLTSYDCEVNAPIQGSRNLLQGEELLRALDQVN
UniProt Q13526: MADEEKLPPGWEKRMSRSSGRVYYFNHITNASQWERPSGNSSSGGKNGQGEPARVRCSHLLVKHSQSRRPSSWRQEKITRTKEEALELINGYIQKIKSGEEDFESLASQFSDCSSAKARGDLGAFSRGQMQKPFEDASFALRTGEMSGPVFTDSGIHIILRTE

Assays:
Flag-tagged HIF-1α = Flag-tagged HIF-1α (UniProt Q16665); test: co-IP; HCT116 cells transfected with Flag-tagged HIF-1α and HA-PIN1, hypoxia 4 h; IP anti-Flag, blot anti-HA
[1] = biological target: PIN1 (endogenous) (human (endogenous in HCT116)) (UniProt Q13526); test: co-IP; endogenous proteins, HCT116 cells under hypoxia 4 h; lysates incubated with normal IgG or anti-PIN1, blot anti-HIF-1α
[2] = biological target: PIN1 (endogenous) (human (endogenous in HCT116)) (UniProt Q13526); test: proximity ligation; Duolink analysis in HCT116 cells under normoxia or hypoxia; also with or without PiB (20 μM); HIF-1α and PIN1 co-labeled with antibodies
GST-PIN1 fusion protein [3] = biological target: GST-PIN1 fusion protein (UniProt Q13526); test: pull-down; cell lysates incubated with GST or GST-PIN1 fusion protein, then GST beads; blot with anti-HIF-1α; only the target purified
GST-PIN1 fusion protein [4] = biological target: GST-PIN1 fusion protein (UniProt Q13526); test: pull-down; purified HA-HIF-1α (treated with or without lambda phosphatase, 1 h, 30°C) incubated with GST-PIN1, pulled down with GST beads; immunoblot; both purified

binding (Flag-tagged HIF-1α): binds
Substance: HA-PIN1 (from UniProt Q13526 1-163)

binding [1]: binds | binding [2]: binds | binding (GST-PIN1 fusion protein [3]): binds
Substance: Hypoxia-Inducible Factor-1α (endogenous) (from UniProt Q16665 1-826)

binding (GST-PIN1 fusion protein [4]): binds
Substance: HA-HIF-1α proteins (purified) (from UniProt Q16665 1-826)
